About 4,000 (1%) of roughly 390,000 compounds were called active. This list was built around the results that the source calls inconclusive (neither active nor inactive); the mix of calls is not that of the screen. Calls follow the shape of the dose curve; as a rule, active = well fitted inhibition curve with a large enough effect; inconclusive = small, poorly fitted or top-dose-only effect, or another doubt; inactive = no such curve, though single readings can be large or run the other way. Potencies beside an inconclusive call are fits to weak or partial responses and may not hold up.
target: DNA polymerase iota (Homo sapiens) (UniProt Q9UNA4); assay: qHTS for Inhibitors of Polymerase Iota; conditions: Pol iota fluorescent replication assay, 10 min; series mostly up to 115 µM
In short: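 Fluorescent replication assay read twice, at 0 min and 10 min after adding 50 nM (final) substrate. Enzyme (10 nM) and compounds were first incubated 15 min at room temperature; enzyme-free buffer wells were negative controls.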
Potency is read from the fitted curve at half-maximal effect.

Amino acid sequences for entries named in this document (tags omitted). A change or cut given only in a name is not applied to a line headed by its entry.
UniProt Q9UNA4: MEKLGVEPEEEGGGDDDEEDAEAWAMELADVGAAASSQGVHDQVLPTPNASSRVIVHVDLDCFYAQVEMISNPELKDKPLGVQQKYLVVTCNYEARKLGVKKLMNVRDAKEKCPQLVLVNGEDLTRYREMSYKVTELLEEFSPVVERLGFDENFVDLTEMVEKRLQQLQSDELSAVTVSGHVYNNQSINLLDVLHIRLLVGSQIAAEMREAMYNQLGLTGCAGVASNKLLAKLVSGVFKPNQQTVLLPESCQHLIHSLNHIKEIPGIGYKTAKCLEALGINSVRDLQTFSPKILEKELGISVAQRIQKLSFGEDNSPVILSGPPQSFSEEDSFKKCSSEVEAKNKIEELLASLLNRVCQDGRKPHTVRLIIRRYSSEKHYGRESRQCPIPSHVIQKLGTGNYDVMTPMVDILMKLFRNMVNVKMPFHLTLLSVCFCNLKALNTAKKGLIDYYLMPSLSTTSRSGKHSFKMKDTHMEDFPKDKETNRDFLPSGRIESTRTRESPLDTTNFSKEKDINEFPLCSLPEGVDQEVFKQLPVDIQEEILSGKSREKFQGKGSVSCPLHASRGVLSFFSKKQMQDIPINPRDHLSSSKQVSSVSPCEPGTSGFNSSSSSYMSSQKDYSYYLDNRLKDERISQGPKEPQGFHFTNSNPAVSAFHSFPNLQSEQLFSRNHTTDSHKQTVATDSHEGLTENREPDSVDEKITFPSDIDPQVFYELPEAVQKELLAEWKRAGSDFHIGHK

SMILES	Potency
CC(C)NC(=O)c1onc(CSc2ccccc2F)c1C(=O)O	inconclusive: 10 µM [inhibitor, partial curve, poor fit]
COc1ccccc1C(OC(=O)c1ccco1)C(=O)NCc1ccc(F)cc1 (stereo unspecified)	inactive
N#CCC(=O)N/N=C/c1cn(Cc2ccc3ccccc3c2)c2ccccc12	inconclusive: 39.8 µM [inhibitor, partial curve]
COC(=O)C1=C(C)NC(C)=C(C(=O)OCCN(C)Cc2ccccc2)C1c1cccc([N+](=O)[O-])c1 (stereo unspecified)	inconclusive: 11.2 µM [inhibitor, partial curve]
CCOC(=O)c1c(-c2ccc(C)o2)csc1NC(=O)COC(=O)c1cccs1	inconclusive: 31.6 µM [inhibitor, partial curve]
O=C(Nc1cccc2nsnc12)c1ccc(-c2cccc(Cl)c2)o1	inconclusive: 22.4 µM [inhibitor, partial curve]
Cc1cccc(Nc2ncnc(N)c2[N+](=O)[O-])n1	inactive
CC(=O)Nc1ccc(S(=O)(=O)O)c(OC(C)=O)c1	inconclusive: 56.2 µM [inhibitor, partial curve, poor fit]
C=C1CCC2C(C)(C)[C@@H](O)CC[C@@]2(C)[C@@H]1COc1ccc2ccc(=O)oc2c1 (stereo partly specified)	inconclusive: 70.8 µM [inhibitor, partial curve, poor fit]
Cc1ccccc1C(=O)NC(=S)Nc1ccc(N2CCOCC2)cc1	inconclusive: 39.8 µM [inhibitor, partial curve, poor fit]
O=c1c2c3nc4ccccc4nc3n(/N=C/c3ccco3)c2ncn1CCC1=CCCCC1	active: 22.4 µM
CCn1c(SCC(=O)NCc2cccs2)nnc1-c1cccs1	inactive
O=C(O)CCC(=O)Nc1ccccc1N1CCOCC1	inactive
COCCn1cnnc1SCC(=O)c1ccc(S(=O)(=O)N2CCCC2)cc1	inconclusive: 25.1 µM [inhibitor, partial curve, poor fit]
O=C(/C=C/c1ccc(Cl)c([N+](=O)[O-])c1)Nc1cccc(NC(=O)c2ccco2)c1	inconclusive: 22.4 µM [inhibitor, partial curve, poor fit]
CCc1c2c(nc3ccc(OC)cc13)-c1nc3ccccc3c(=O)n1C2	inactive
COC1=C/C(=C/c2c(N)n3nc(CC(=O)N4CCCCC4)sc3nc2=O)C=CC1=O	inconclusive: 56.2 µM [inhibitor, partial curve, poor fit]
CC1=CC(=C(C#N)C#N)C=C(C)N1CCN1CCNCC1	inconclusive: 39.8 µM [inhibitor, partial curve, poor fit]
O=C(C1CCN(c2ncnc3c2nc2n3CCCCC2)CC1)N1CCCCC1	inconclusive: 39.8 µM [inhibitor, partial curve, poor fit]
Cc1ccc(C(=O)N/N=C\c2ccc(-c3ccc(Cl)cc3)o2)cn1	inactive
O=C(CC(Nc1ccc(Cl)cc1Cl)C(=O)O)c1ccccc1 (stereo unspecified)	inconclusive: 12.6 µM [inhibitor, partial curve, poor fit]
O=C1c2cccnc2C(=O)N1Cc1ccc(S(=O)(=O)N2CCOc3ccccc32)cc1	inconclusive: 70.8 µM [inhibitor, partial curve]

SMILES	Potency
C/C(=N/NC(=O)c1ccc(C)s1)c1cccnc1	inconclusive: 44.7 µM [inhibitor, single point]
O=C(CSc1nnc(CNC(=O)c2ccccc2F)o1)NCc1ccco1	inconclusive: 39.8 µM [inhibitor, partial curve, poor fit]
O=c1cc2c(nn1Cc1ccc(Cl)cc1)-c1ccccc1CC2	inconclusive: 25.1 µM [inhibitor, single point]
COc1ccc(S(=O)(=O)N2CCCCCC2)cc1C(=O)N1CCN(c2ccccc2C)CC1	inconclusive: 100 µM [inhibitor, single point]
CC(=O)N(c1ccc(Cl)cc1)C1SC(=O)N(c2ccccc2)C1=O (stereo unspecified)	inconclusive: 39.8 µM [inhibitor, single point]
c1ccc(-c2cnc(-c3ccccc3)nn2)cc1	inconclusive: 15.8 µM [inhibitor, partial curve, poor fit]
CCC1CCc2nc3sc(C(=O)Nc4ccc(C)cc4)c(N)c3cc2C1 (stereo unspecified)	inactive
COc1ccc(C(=O)COC(=O)CNC(=O)c2ccc(Cl)cc2Cl)c(OC)c1	inconclusive: 44.7 µM [inhibitor, partial curve]
N=NC(=O)c1ccccc1Nc1c(O)[nH]c2ccccc12	inconclusive: 79.4 µM [inhibitor, single point]
Cc1ccc(-c2c3c(=O)n(C)c(=O)n(C)c3cn2Cc2cccnc2)cc1	inconclusive: 39.8 µM [inhibitor, single point]
O=C(Nc1ccc(Cl)cc1)Nc1ccc(-c2cnco2)cc1	inactive
Nc1ncnc2oc(-c3ccco3)c(-c3ccco3)c12	inconclusive: 8.91 µM [inhibitor, full curve, poor fit]
O=c1c2cn[nH]c2[nH]c(=S)n1-c1ccccc1	inactive
N#Cc1ccc(OCC(=O)N2CCCC2=O)cc1	inconclusive: 5.01 µM [inhibitor, full curve, poor fit]
CC(C)(C)c1ccc(C(=O)N/C(=C\c2cccc([N+](=O)[O-])c2)C(=O)Nc2cccc(C(=O)O)c2)cc1	inactive
Cc1ccc(CNC(=O)c2cccc3c2C(=O)c2ccc(N4CCCCC4)cc2S3(=O)=O)cc1	inconclusive: 22.4 µM [inhibitor, full curve, poor fit]
COc1cc(/C=N/n2c(-c3ccccc3)n[nH]c2=S)ccc1O	inactive
COc1ccc(-c2cc3ccc(O)c(CN4CCC(C)CC4)c3oc2=O)cc1	inconclusive: 100 µM [inhibitor, partial curve, poor fit]
COc1ccc2c(c1)C=C/C2=C/c1ccc(N(C)C)cc1	inactive
COCCn1c(N)c(C(=O)OCc2ccccc2)c2nc3ccccc3nc21	active: 20 µM
O=C(OCC(=O)N1N=C(c2ccc(Cl)cc2)CC1c1ccco1)c1ccco1 (stereo unspecified)	inactive
O=C(Nc1cccc(Cl)c1)c1ccc(F)c(S(=O)(=O)NCc2ccc3c(c2)OCO3)c1	inactive

A few values from above:
Entry of `CC(C)(C)c1ccc(C(=O)N/C(=C\c2cccc([N+](=O)[O-])c2)C(=O)Nc2cccc(C(=O)O)c2)cc1` under Potency: inactive
Entry of `O=C(Nc1ccc(Cl)cc1)Nc1ccc(-c2cnco2)cc1` under Potency: inactive

The list continues.

SMILES	Potency
O=C1[C@H]2[C@@H](c3ccc(F)cc3)N3C(=O)N(c4cccc(F)c4)C(=O)[C@@]3(Cc3ccccc3)[C@H]2C(=O)N1C1CCCCC1	inconclusive: 28.2 µM [inhibitor, single point]
Nc1ccc2c(c1Cl)C(=O)c1ccc(N)c(Cl)c1C2=O	inconclusive: 12.6 µM [inhibitor, partial curve, poor fit]
CCOC(=O)c1c(NC(=O)CSc2ncnc3ccccc23)sc(C(C)=O)c1C	inconclusive: 79.4 µM [inhibitor, single point]
CN(CC(=O)Nc1ccccc1C(=O)NC1CC1)Cc1ccco1	inactive
CCCCCCCCOc1ccc(C(=O)O)cc1	inconclusive: 39.8 µM [inhibitor, single point]
CCOC(=O)CN1C(=O)N[C@H](c2ccc(Br)cc2)C(C(C)=O)=C1C	inconclusive: 31.6 µM [inhibitor, single point]
COc1cc(C(C)=O)ccc1OC(=O)C(C)N1C(=O)c2ccccc2C1=O (stereo unspecified)	inconclusive: 25.1 µM [inhibitor, single point]
O=C(N/N=C/C(Cl)=C/c1ccc([N+](=O)[O-])cc1)C(=O)Nc1ccc(C(=O)O)cc1	inconclusive: 79.4 µM [inhibitor, partial curve, poor fit]
COc1cc(N=Nc2ccc(C(=O)N(C)C)cc2)c(C)cc1N	inconclusive: 35.5 µM [inhibitor, single point]
Cc1ccc(CN2CCCn3nc(C(=O)NC(C)C)cc3C2=O)cc1	inconclusive: 79.4 µM [inhibitor, partial curve, poor fit]
COc1ccc(NC(=O)Cn2c(=O)n(Cc3nc(-c4ccccc4)no3)c(=O)c3cc4c(cc32)OCO4)c(OC)c1	inactive
O=C1Nc2ccc(S(=O)(=O)NCc3ccccn3)c3cccc1c23	active: 50.1 µM
Cc1ccc(-c2cc(C(=O)N3CCCCC3)c3ccccc3n2)cc1C	inactive
O=C(OCc1cc(=O)n2c(n1)sc1ccccc12)c1ccc2c(=O)n3c(nc2c1)CCC3	inconclusive: 39.8 µM [inhibitor, single point]
CC(C)=CCc1c2c(c3occ(-c4ccc(O)cc4)c(=O)c3c1O)C=CC(C)(C)O2	inactive
CCc1ccc(N2CC(C(=O)OCc3csc(CC(=O)Nc4ccccc4C)n3)CC2=O)cc1 (stereo unspecified)	inactive
COC(=O)N1CCc2c(sc(NC(=O)C3=COCCO3)c2C#N)C1	inconclusive: 89.1 µM [inhibitor, partial curve, poor fit]
CC(=O)Nc1ccc(S(=O)(=O)NC2=C(N3CCN(c4ccc(F)cc4)CC3)C(=O)c3ccccc3C2=O)cc1	inconclusive: 14.1 µM [inhibitor, partial curve, poor fit]
CNC(=O)CSc1nnc(NC(=O)C2CC(=O)N(c3ccccc3OC)C2)s1 (stereo unspecified)	inconclusive: 12.6 µM [inhibitor, partial curve]
O=[N+]([O-])c1cc([N+](=O)[O-])c2nonc2c1Nc1ccccc1O	inactive
O=c1cc(CSc2nnnn2-c2ccccc2)nc2scc(-c3ccccc3)n12	inconclusive: 28.2 µM [inhibitor, single point]
Cc1ccc(C)n1NC(=O)c1ccco1	inconclusive: 44.7 µM [inhibitor, partial curve, poor fit]

Reference: PubChem BioAssay AID588590 (National Center for Advancing Translational Sciences (NCATS), 2011)
